Laboratory results: paper PMC5056459, “Antagonistic roles of Drosophila Tctp and Brahma in chromatin remodelling and stabilizing repeated sequences” (Nature Communications, 2016)
No constants are given. Whether binding was seen depends on the method and setting. Binding seen in cells or lysates may run through a third protein. Some results given as binding are weak or reduced against the parent protein; the word gives no strength. Where a sequence is shown, tags or fusion partners need not be part of it. Values belong to the molecule of their own block, whether it stands above or below them.

By UniProt entry, the sequences of proteins in these tests, tags left out.
UniProt P25439: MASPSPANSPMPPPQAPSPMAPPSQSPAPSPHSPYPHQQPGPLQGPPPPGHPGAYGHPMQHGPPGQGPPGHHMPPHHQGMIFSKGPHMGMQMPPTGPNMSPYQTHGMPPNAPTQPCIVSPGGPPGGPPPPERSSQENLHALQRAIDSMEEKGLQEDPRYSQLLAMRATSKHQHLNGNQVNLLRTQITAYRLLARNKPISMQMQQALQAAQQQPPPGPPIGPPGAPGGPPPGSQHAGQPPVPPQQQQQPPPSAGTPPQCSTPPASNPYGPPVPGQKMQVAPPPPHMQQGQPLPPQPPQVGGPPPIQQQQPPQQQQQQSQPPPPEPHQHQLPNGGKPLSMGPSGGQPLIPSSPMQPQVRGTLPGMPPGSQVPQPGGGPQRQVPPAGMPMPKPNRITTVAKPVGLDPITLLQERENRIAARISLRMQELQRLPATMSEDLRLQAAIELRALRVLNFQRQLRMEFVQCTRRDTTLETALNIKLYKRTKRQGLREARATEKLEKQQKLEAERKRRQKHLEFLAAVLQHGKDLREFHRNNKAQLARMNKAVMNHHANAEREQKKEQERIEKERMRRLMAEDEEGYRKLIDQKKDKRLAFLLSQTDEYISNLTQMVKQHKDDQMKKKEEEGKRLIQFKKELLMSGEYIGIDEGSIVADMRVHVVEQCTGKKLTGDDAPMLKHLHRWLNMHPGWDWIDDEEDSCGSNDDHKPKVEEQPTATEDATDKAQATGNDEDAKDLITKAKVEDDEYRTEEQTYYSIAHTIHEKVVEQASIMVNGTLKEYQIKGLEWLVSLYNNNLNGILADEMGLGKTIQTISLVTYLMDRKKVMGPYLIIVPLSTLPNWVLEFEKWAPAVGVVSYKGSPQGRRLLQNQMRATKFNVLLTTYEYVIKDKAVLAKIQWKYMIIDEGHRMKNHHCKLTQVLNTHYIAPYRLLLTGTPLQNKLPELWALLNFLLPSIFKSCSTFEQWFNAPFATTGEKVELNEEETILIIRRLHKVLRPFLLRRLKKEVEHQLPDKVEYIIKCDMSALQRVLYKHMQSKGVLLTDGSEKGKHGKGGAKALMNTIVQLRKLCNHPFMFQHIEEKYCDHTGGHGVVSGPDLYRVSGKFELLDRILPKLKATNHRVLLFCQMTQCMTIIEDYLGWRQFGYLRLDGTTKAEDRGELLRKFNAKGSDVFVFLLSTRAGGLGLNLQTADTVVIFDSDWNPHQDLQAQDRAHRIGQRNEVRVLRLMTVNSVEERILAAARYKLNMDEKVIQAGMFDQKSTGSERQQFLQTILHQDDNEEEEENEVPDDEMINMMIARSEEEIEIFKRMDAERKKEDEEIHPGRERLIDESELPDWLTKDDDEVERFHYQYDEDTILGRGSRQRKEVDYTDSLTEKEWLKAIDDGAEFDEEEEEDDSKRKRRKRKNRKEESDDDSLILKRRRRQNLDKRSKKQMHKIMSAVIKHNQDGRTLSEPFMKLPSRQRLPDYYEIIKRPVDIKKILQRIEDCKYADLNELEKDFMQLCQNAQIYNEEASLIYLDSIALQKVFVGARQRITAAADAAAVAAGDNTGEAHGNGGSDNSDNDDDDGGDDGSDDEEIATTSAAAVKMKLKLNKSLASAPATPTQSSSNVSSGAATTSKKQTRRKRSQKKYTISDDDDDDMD

What was measured:
2xMYC-Tctp (Drosophila) = biological target: T1, 2xMYC-Tctp (Drosophila) (UniProt Q9VGS2); test: co-IP; nuclear extract of transfected S2 cells, treated with benzonase 100 U per ml for 1 h in IP buffer (20 mM HEPES pH 7.4, 80 mM KCl, 0.2% NP-40); IP with anti-MYC, anti-FLAG or anti-Pol-II at 4 °C for 2 h; western blot; for ARP4/Act (Fig. 2a) cells with or without Tctp knock-down by dsRNA
T1 sequence: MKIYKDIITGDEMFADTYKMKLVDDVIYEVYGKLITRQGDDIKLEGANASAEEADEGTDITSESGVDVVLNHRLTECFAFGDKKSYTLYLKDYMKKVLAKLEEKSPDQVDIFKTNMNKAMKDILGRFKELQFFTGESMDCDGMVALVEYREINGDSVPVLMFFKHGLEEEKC

[1] = biological target: 2xFLAG-tagged full-length wild-type Brm (Brm^WT) (Drosophila) (UniProt P25439); test: as above

binding (2xMYC-Tctp (Drosophila)): binds
Molecule: 2xFLAG-tagged full-length wild-type Brm (Brm^WT) (from UniProt P25439 1-1638) (enzyme)

binding [1]: binds
B1: ARP4-V5 (protein, UniProt Q7K012 1-425)
chain: MSGGTMLYGGDEIGALVFDPGHHSLRVGYAQEDSPKAEIPSVVGIGAAPETNLDPETKTDNNATPNNADQRKFYVDTNYVTVPRSNMEVQTYMKDGMIDNWDLFEKVIDYAYANVIQSEPEYHPVLFSEASWNVRNNREKLTELMFEKYNVPAFFLVKNAVLAAFSSGRATALVVDSGATHTSAVPVHEGYVLSQAVVKSPLGGDFLSRQCRQHLEKHGIDLSPVYKIASKDVVKERDNGRFTLRKLPENLTQSWQNYMLQLMMQDFQMNVLQVLENPFDERVAAQIPTVHYEFPNGYHQDFGSERFKIAESLFDNAMLGAGQLASTSVGMCDADVRLSLFGSVVVTGGNTLLQGFPERLNRDLQLRAPSNTRLKMISANGSVERRFGAWIGGSILASIGTFQQMWISSQEYEEAGKSQVERKCP

binding [1]: binds
B2: MBP-Tctp (natural protein, Drosophila, UniProt Q9VGS2 1-172, looked up)
chain: T1 sequence
notes: Drosophila Tctp in pMAL-c2; also called MBP-tagged Tctp; source: E. coli Rosetta2, extracted and dialysed
